Earlier results in patent publication US20130266658A1, “Method of producing a PPI-containing pharmaceutical preparation” (Temmler Werke GmbH, priority 2010, published 2013).

Conditions: aqueous solution, pH values below 2

half-life: less than 10 minutes
SMILES: COc1ccc2[nH]c([S+]([O-])Cc3ncc(C)c(OC)c3C)nc2c1 (stereo not shown) [omeprazole]
